# PMC5641085
# Amino acid sequences for entries named in this document (tags omitted).
# UniProt O95832: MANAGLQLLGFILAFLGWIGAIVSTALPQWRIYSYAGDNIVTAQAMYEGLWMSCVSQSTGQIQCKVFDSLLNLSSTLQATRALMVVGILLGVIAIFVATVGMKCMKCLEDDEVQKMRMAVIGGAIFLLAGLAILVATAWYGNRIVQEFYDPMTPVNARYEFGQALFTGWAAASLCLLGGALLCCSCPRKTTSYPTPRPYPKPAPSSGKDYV
# UniProt O95863: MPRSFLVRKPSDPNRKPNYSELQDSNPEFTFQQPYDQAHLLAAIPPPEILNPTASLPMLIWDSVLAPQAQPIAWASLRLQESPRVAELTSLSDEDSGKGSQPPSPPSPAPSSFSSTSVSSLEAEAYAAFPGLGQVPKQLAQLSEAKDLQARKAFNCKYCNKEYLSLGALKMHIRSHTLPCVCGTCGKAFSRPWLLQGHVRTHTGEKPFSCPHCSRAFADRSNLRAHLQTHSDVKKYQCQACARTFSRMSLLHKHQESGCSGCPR
# UniProt P08670: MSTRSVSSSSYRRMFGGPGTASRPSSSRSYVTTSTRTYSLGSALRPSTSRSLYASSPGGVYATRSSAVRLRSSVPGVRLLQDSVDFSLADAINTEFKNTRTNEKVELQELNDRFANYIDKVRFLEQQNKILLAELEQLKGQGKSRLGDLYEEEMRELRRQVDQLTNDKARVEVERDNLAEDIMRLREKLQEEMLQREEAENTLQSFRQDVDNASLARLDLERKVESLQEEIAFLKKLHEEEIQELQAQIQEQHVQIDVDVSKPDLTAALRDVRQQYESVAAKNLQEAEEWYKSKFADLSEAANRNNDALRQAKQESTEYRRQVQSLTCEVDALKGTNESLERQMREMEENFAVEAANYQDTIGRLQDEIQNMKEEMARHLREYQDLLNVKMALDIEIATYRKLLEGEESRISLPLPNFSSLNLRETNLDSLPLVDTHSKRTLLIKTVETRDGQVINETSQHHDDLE
# UniProt P35222: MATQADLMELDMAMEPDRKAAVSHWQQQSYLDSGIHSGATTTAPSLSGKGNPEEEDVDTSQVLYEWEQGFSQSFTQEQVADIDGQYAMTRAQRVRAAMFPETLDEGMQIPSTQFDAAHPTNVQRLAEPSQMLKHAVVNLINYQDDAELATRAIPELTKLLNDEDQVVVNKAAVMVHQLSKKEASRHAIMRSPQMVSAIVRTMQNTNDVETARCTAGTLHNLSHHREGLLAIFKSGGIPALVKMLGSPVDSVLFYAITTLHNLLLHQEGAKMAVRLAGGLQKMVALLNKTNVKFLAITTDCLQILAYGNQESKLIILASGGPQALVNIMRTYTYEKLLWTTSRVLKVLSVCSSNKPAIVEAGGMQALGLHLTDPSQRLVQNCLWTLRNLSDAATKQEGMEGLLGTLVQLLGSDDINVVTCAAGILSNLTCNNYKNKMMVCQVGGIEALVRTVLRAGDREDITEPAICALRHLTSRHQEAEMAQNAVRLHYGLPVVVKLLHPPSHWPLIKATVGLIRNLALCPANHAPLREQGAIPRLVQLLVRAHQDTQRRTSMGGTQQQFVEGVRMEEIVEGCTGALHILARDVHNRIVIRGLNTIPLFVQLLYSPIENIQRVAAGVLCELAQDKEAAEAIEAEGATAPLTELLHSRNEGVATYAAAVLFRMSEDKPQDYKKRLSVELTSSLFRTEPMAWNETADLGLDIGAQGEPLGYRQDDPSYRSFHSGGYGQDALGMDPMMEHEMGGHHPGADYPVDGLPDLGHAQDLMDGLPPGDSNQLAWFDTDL
# Results are given in words; binding and its absence hold for the method and conditions named.
# T1: Ubiquitin-conjugating enzyme E2 J2 (UBE2J2) (human (endogenous in human liver cancer cell lines HCCLM3 or SMMC7721)) (UniProt Q8N2K1)
# T1 sequence: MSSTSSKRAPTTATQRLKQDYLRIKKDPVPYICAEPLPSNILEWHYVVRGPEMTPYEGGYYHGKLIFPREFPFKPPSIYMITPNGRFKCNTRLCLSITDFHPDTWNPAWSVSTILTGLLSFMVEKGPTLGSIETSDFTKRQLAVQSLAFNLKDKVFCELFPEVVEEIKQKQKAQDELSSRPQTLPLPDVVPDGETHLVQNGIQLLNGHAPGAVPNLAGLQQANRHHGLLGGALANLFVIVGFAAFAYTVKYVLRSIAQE
# B1: slug (protein, UniProt O43623 1-268)
# chain: MPRSFLVKKHFNASKKPNYSELDTHTVIISPYLYESYSMPVIPQPEILSSGAYSPITVWTTAAPFHAQLPNGLSPLSGYSSSLGRVSPPPPSDTSSKDHSGSESPISDEEERLQSKLSDPHAIEAEKFQCNLCNKTYSTFSGLAKHKQLHCDAQSRKSFSCKYCDKEYVSLGALKMHIRTHTLPCVCKICGKAFSRPWLLQGHIRTHTGEKPFSCPHCNRAFADRSNLRAHLQTHSDVKKYQCKNCSKTFSRMSLLHKHEESGCCVAH
# Target: T1, Ubiquitin-conjugating enzyme E2 J2 (UBE2J2) (human (endogenous in human liver cancer cell lines HCCLM3 or SMMC7721))
# Assay: SPR; Biacore X100; anti-UBE2J2 antibody (and normal IgG) immobilised on a CM5 chip by EDC/NHS, blocked with 3% BSA; concentrated RIPA cell lysate injected, washed with HEPES buffer (50 mM HEPES, pH 7.4, 150 mM NaCl); proteins held with UBE2J2 detected by injecting antibodies against them
row,binding,Molecule
1,no binding,CLDN-1 (from UniProt O95832 1-211)
2,no binding,snail (from UniProt O95863 1-264)
3,no binding,vimentin (from UniProt P08670 1-466)
4,no binding,β-catenin (from UniProt P35222 1-781)
5,no binding,B1
